Results are given in words; binding and its absence hold for the method and conditions named. In cells and extracts the contact can be indirect. Some entries that bind do so weakly or less than the wild type. Sequences can lack the tags named with a protein.
Columns and labels:
[1] = target: SMAD2 (human (endogenous in HEK293T)) (UniProt Q15796); assay: co-IP; lysate of HEK293T cells transfected with Myc-tagged HDAC7 (48 h); lysis buffer 20 mM Tris-HCl, 150 mM NaCl, 0.3% Nonidet P-40, 10% glycerol, pH 7.5; endogenous SMADs immunoprecipitated with anti-SMAD4 or anti-SMAD2 (16 h, protein A/G-agarose), immunoblot for Myc; control IgG
[2] = target: SMAD4 (human (endogenous in HEK293T)) (UniProt Q13485); assay: as above

Protein sequences, listed by entry. Tags and fused reporters are not part of them.
UniProt Q15796: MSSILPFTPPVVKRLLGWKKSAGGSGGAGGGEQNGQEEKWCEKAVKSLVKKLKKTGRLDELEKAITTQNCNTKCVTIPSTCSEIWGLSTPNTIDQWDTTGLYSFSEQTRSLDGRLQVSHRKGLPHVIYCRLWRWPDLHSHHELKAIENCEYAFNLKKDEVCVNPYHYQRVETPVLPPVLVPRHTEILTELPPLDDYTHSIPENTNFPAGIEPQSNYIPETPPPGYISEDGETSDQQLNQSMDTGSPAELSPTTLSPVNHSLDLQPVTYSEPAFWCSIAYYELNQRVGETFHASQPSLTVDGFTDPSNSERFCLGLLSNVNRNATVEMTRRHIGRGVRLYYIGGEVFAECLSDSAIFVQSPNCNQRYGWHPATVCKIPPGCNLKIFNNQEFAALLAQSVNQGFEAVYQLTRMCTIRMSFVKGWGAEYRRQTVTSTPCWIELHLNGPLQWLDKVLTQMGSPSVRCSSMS
UniProt Q13485: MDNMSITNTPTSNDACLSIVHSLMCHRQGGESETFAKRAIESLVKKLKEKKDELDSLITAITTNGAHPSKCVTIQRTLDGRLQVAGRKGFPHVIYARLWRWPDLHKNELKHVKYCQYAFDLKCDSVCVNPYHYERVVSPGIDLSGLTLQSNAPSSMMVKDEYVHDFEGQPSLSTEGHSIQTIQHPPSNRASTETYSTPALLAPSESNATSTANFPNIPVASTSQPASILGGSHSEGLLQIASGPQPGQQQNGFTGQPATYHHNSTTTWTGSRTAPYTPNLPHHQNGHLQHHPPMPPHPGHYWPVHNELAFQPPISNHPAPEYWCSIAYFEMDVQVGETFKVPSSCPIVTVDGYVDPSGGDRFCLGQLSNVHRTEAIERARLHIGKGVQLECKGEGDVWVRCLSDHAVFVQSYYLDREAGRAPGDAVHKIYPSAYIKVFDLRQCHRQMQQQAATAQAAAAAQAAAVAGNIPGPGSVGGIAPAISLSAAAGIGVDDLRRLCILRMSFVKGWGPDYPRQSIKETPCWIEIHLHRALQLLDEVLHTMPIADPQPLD

B1: Myc-tagged HDAC7 (protein, UniProt Q8WUI4 1-952)
chain: MDLRVGQRPPVEPPPEPTLLALQRPQRLHHHLFLAGLQQQRSVEPMRLSMDTPMPELQVGPQEQELRQLLHKDKSKRSAVASSVVKQKLAEVILKKQQAALERTVHPNSPGIPYRTLEPLETEGATRSMLSSFLPPVPSLPSDPPEHFPLRKTVSEPNLKLRYKPKKSLERRKNPLLRKESAPPSLRRRPAETLGDSSPSSSSTPASGCSSPNDSEHGPNPILGSEALLGQRLRLQETSVAPFALPTVSLLPAITLGLPAPARADSDRRTHPTLGPRGPILGSPHTPLFLPHGLEPEAGGTLPSRLQPILLLDPSGSHAPLLTVPGLGPLPFHFAQSLMTTERLSGSGLHWPLSRTRSEPLPPSATAPPPPGPMQPRLEQLKTHVQVIKRSAKPSEKPRLRQIPSAEDLETDGGGPGQVVDDGLEHRELGHGQPEARGPAPLQQHPQVLLWEQQRLAGRLPRGSTGDTVLLPLAQGGHRPLSRAQSSPAAPASLSAPEPASQARVLSSSETPARTLPFTTGLIYDSVMLKHQCSCGDNSRHPEHAGRIQSIWSRLQERGLRSQCECLRGRKASLEELQSVHSERHVLLYGTNPLSRLKLDNGKLAGLLAQRMFVMLPCGGVGVDTDTIWNELHSSNAARWAAGSVTDLAFKVASRELKNGFAVVRPPGHHADHSTAMGFCFFNSVAIACRQLQQQSKASKILIVDWDVHHGNGTQQTFYQDPSVLYISLHRHDDGNFFPGSGAVDEVGAGSGEGFNVNVAWAGGLDPPMGDPEYLAAFRIVVMPIAREFSPDLVLVSAGFDAAEGHPAPLGGYHVSAKCFGYMTQQLMNLAGGAVVLALEGGHDLTAICDASEACVAALLGNRVDPLSEEGWKQKPNLNAIRSLEAVIRVHSKYWGCMQRLASCPDSWVPRVPGADKEEVEAVTALASLSVGILAEDRPSEQLVEEEEPMNL
binding [1]: binds
binding [2]: binds

Source: publication PMC8663777
